Reference: US20070072904A1, “PPAR active compounds” (priority 2005, published 2007)
Some entries share one result that the patent states for a list of compounds. Each block holds one compound with its values, some of them ahead of it.

Tested on: PPARα, PPARγ and PPARδ
Assay: PPAR activity assays: biochemical assay of Example 9 or cell based assay of Example 10, at least one of the PPARs
Settings: read-out: EC50 in at least one of PPARα, PPARγ and PPARδ activity assays; either biochemical assay of Example 9 or cell based assay of Example 10; at least one of the PPARs

SMILES: O=C(O)CCc1cn(S(=O)(=O)c2ccc(-c3ccoc3)s2)c2ccc(Cl)cc12 [Compound P-0409, 3-[5-Chloro-1-(5-furan-3-yl-thiophene-2-sulfonyl)-1H-indol-3-yl]-propionic acid]
- EC50: ≤ 1000 nM

SMILES: O=C(O)CCc1cn(S(=O)(=O)c2ccc(-c3ccc(C(F)(F)F)cc3Cl)s2)c2ccc(F)cc12 [Compound P-0518, 3-{1-[5-(2-Chloro-4-trifluoromethyl-phenyl)-thiophene-2-sulfonyl]-5-fluoro-1H-indol-3-yl}-propionic acid]
- EC50: ≤ 1000 nM

SMILES: COc1ccc(S(=O)(=O)n2cc(CCC(=O)O)c3cc(OC(C)C)ccc32)cc1 [Compound P-0308, 3-[5-Isopropoxy-1-(4-methoxy-benzenesulfonyl)-1H-indol-3-yl]-propionic acid]
- EC50: ≤ 1000 nM

SMILES: O=C(O)CCc1cn(S(=O)(=O)c2ccc(-c3cccc(OC(F)(F)F)c3)s2)c2ccc(F)cc12 [Compound P-0483, 3-{5-Fluoro-1-[5-(3-trifluoromethoxy-phenyl)-thiophene-2-sulfonyl]-1H-indol-3-yl}-propionic acid]
- EC50: ≤ 1000 nM

SMILES: COc1ccc2c(c1)c(CCC(=O)O)cn2S(=O)(=O)c1ccc(-c2ccc(OCc3ccccc3)nc2)s1 [Compound P-0470, 3-{1-[5-(6-Benzyloxy-pyridin-3-yl)-thiophene-2-sulfonyl]-5-methoxy-1H-indol-3-yl}-propionic acid]
- EC50: ≤ 1000 nM

SMILES: CCCCOc1ccc(S(=O)(=O)n2cc(CCC(=O)O)c3cc4c(cc32)OCO4)cc1 [Compound P-0230, 3-[5-(4-Butoxy-benzenesulfonyl)-5H-[1,3]dioxolo[4,5-f]indol-7-yl]-propionic acid]
- EC50: ≤ 1000 nM

SMILES: CN1CCOc2cc(S(=O)(=O)n3cc(CCC(=O)O)c4cc5c(cc43)OCO5)ccc21 [Compound P-0221, 3-[5-(4-Methyl-3,4-dihydro-2H-benzo[1,4]oxazine-7-sulfonyl)-5H-[1,3]dioxolo[4,5-f]indol-7-yl]-propionic acid]
- EC50: ≤ 1000 nM

SMILES: CCOc1ccc2c(c1)c(CCC(=O)O)cn2S(=O)(=O)c1ccccc1-c1ccc(C)c(C)c1 [Compound P-0555, 3-[1-(3′,4′-Dimethyl-biphenyl-2-sulfonyl)-5-ethoxy-1H-indol-3-yl]-propionic acid]
- EC50: ≤ 1000 nM

SMILES: O=C(O)CCc1cn(S(=O)(=O)c2ccc(-c3ccc(Cl)c(C(F)(F)F)c3)s2)c2ccc(Cl)cc12 [Compound P-0510, 3-{5-Chloro-1-[5-(4-chloro-3trifluoromethyl-phenyl)-thiophene-2-sulfonyl]-1H-indol-3-yl}-propionic acid]
- EC50: ≤ 1000 nM

SMILES: CC(C)Oc1ccc2c(CCC(=O)O)cn(S(=O)(=O)c3ccc(Cl)c(Cl)c3)c2c1 [Compound P-0231, 3-[1-(3,4-Dichloro-benzenesulfonyl)-6-isopropoxy-1H-indol-3-yl]-propionic acid]
- EC50: ≤ 1000 nM

SMILES: COc1ccc2c(c1)c(CCC(=O)O)cn2S(=O)(=O)c1ccc2c(c1)OCCN2C [Compound P-0144, 3-[5-Methoxy-1-(4-methyl-3,4-dihydro-2H-benzo[1,4]oxazine-7-sulfonyl)-1H-indol-3-yl]-propionic acid]
- EC50: ≤ 1000 nM

SMILES: COc1ccc2c(c1)c(CCC(=O)O)cn2S(=O)(=O)c1ccc(-c2ccc(OCC(F)(F)F)cc2)s1 [Compound P-0523, 3-(5-Methoxy-1-{5-[4-(2,2,2-trifluoro-ethoxy)-phenyl]-thiophene-2-sulfonyl}-1H-indol-3-yl)-propionic acid]
- EC50: ≤ 1000 nM

SMILES: COc1ccc(-c2ccc(S(=O)(=O)n3cc(CCC(=O)O)c4cc(OC)ccc43)cc2)cc1 [Compound P-0072, 3-[5-Methoxy-1-(4′-methoxy-biphenyl-4-sulfonyl)-1H-indol-3-yl]-propionic acid]
- EC50: ≤ 1000 nM

SMILES: CCOc1ccc2c(CCC(=O)O)cn(S(=O)(=O)c3cccc(Oc4ccc(Cl)c(Cl)c4)c3)c2c1 [Compound P-0175, 3-{1-[3-(3,4-Dichloro-phenoxy)-benzenesulfonyl]-6-ethoxy-1H-indol-3-yl}-propionic acid]
- EC50: ≤ 1000 nM

SMILES: CCOc1ccc2c(c1)c(CCC(=O)O)cn2S(=O)(=O)c1ccc(-c2ccc(C(F)(F)F)cc2)s1 [Compound P-0494, 3-{5-Ethoxy-1-[5-(4-trifluoromethyl-phenyl)-thiophene-2-sulfonyl]-1H-indol-3-yl}-propionic acid]
- EC50: ≤ 1000 nM

SMILES: COc1ccc2c(c1)c(CCC(=O)O)cn2S(=O)(=O)c1ccc(-c2cn[nH]c2)s1 [Compound P-0450, 3-{5-Methoxy-1-[5-(1H-pyrazol-4-yl)-thiophene-2-sulfonyl]-1H-indol-3-yl}-propionic acid]
- EC50: ≤ 1000 nM

More lines, now with the values ahead:

- EC50: ≤ 1000 nM
SMILES: COc1ccc(-c2ccc(S(=O)(=O)n3cc(CCC(=O)O)c4cc(OC)ccc43)s2)cc1 [Compound P-0016, 3-{5-methoxy-1-[5-(4-methoxy-phenyl)-thiophene-2-sulfonyl]-1H-indol-3-yl}-propionic acid]

- EC50: ≤ 1000 nM
SMILES: CCOc1ccc2c(c1)c(CCC(=O)O)cn2S(=O)(=O)c1ccccc1-c1ccc(C(F)(F)F)cc1 [Compound P-0552, 3-[5-Ethoxy-1-(4′-trifluoromethyl-biphenyl-2-sulfonyl)-1H-indol-3-yl]-propionic acid]

- EC50: ≤ 1000 nM
SMILES: COc1ccc2c(c1)c(CCC(=O)O)cn2S(=O)(=O)c1ccc(-c2ccc(Cl)cc2)s1 [Compound P-0399, 3-{1-[5-(4-Chloro-phenyl)-thiophene-2-sulfonyl]-5-methoxy-1H-indol-3-yl}-propionic acid]

- EC50: ≤ 1000 nM
SMILES: CNC(=O)Nc1ccc(S(=O)(=O)n2cc(CCC(=O)O)c3cc(OC(C)C)ccc32)cc1Cl [Compound P-0373, 3-{1-[3-Chloro-4-(3-methyl-ureido)-benzenesulfonyl]-5-isopropoxy-1H-indol-3-yl}-propionic acid]

- EC50: ≤ 1000 nM
SMILES: Cc1cc(S(=O)(=O)n2cc(CCC(=O)O)c3cc(OC(C)C)ccc32)c(C)s1 [Compound P-0334, 3-[1-(2,5-Dimethyl-thiophene-3-sulfonyl)-5-isopropoxy-1H-indol-3-yl]-propionic acid]

- EC50: ≤ 1000 nM
SMILES: CCOc1ccc2c(c1)c(CCC(=O)O)cn2S(=O)(=O)c1ccccc1-c1ccc(Cl)cc1 [Compound P-0529, 3-[1-(4′-Chloro-biphenyl-2-sulfonyl)-5-ethoxy-1H-indol-3-yl]-propionic acid]

- EC50: ≤ 1000 nM
SMILES: CCCc1ccc(-c2ccccc2S(=O)(=O)n2cc(CCC(=O)O)c3cc(OCC)ccc32)cc1 [Compound P-0538, 3-[5-Ethoxy-1-(4′-propyl-biphenyl-2-sulfonyl)-1H-indol-3-yl]-propionic acid]

- EC50: ≤ 1000 nM
SMILES: CCOc1ccc2c(c1)c(CCC(=O)O)cn2S(=O)(=O)c1ccc(-c2ccncc2)s1 [Compound P-0415, 3-[5-Ethoxy-1-(5-pyridin-4-yl-thiophene-2-sulfonyl)-1H-indol-3-yl]-propionic acid]

- EC50: ≤ 1000 nM
SMILES: O=C(O)CCc1cn(S(=O)(=O)c2ccc(I)cc2)c2cc3c(cc12)OCO3 [Compound P-0296, 3-[5-(4-Iodo-benzenesulfonyl)-5H-[1,3]dioxolo[4,5-f]indol-7-yl]-propionic acid]

- EC50: ≤ 1000 nM
SMILES: O=C(O)CCc1cn(S(=O)(=O)c2ccc(-c3ccc(OCc4ccccc4)nc3)s2)c2ccc(Cl)cc12 [Compound P-0472, 3-{1-[5-(6-Benzyloxy-pyridin-3-yl)-thiophene-2-sulfonyl]-5-chloro-1H-indol-3-yl}-propionic acid]

- EC50: ≤ 1000 nM
SMILES: O=C(O)CCc1cn(S(=O)(=O)c2ccc(-c3ccc(C(F)(F)F)cc3)s2)c2ccc(Cl)cc12 [Compound P-0495, 3-{5-Chloro-1-[5-(4-trifluoromethyl-phenyl)-thiophene-2-sulfonyl]-1H-indol-3-yl}-propionic acid]

- EC50: ≤ 1000 nM
SMILES: Cn1nc(-c2ccc(S(=O)(=O)n3cc(CCC(=O)O)c4cc(F)ccc43)s2)cc1C(F)(F)F [Compound P-0002, 3-{5-Fluoro-1-[5-(1-methyl-5-trifluoromethyl-1H-pyrazol-3-yl)-thiophene-2-sulfonyl]-1H-indol-3-yl}-propionic acid]

- EC50: ≤ 1000 nM
SMILES: CC(C)Oc1ccc2c(c1)c(CCC(=O)O)cn2S(=O)(=O)c1ccc(Oc2cccnc2)cc1 [Compound P-0371, 3-{5-Isopropoxy-1-[4-(pyridin-3-yloxy)-benzenesulfonyl]-1H-indol-3-yl}-propionic acid]

- EC50: ≤ 1000 nM
SMILES: COc1ccc2c(c1)c(CCC(=O)O)cn2S(=O)(=O)c1ccc(-c2cnn(C)c2)s1 [Compound P-0454, 3-{5-Methoxy-1-[5-(1-methyl-1H-pyrazol-4-yl)-thiophene-2-sulfonyl]-1H-indol-3-yl}-propionic acid]

- EC50: ≤ 1000 nM
SMILES: O=C(O)CCc1cn(S(=O)(=O)c2ccc(-c3cccc(F)c3)s2)c2ccc(Cl)cc12 [Compound P-0479, 3-{5-Chloro-1-[5-(3-fluoro-phenyl)-thiophene-2-sulfonyl]-1H-indol-3-yl}-propionic acid]

- EC50: ≤ 1000 nM
SMILES: CCOc1ccc2c(c1)c(CCC(=O)O)cn2S(=O)(=O)c1ccccc1-c1ccc(N(C)C)cc1 [Compound P-0533, 3-[1-(4′-Dimethylamino-biphenyl-2-sulfonyl)-5-ethoxy-1H-indol-3-yl]-propionic acid]

- EC50: ≤ 1000 nM
SMILES: COc1ccc2c(c1)c(CCC(=O)O)cn2S(=O)(=O)/C=C/c1ccc(C(F)(F)F)cc1 [Compound P-0031, 3-{5-Methoxy-1-[(E)-2-(4-trifluoromethyl-phenyl)-ethenesulfonyl]-1H-indol-3-yl}-propionic acid]

- EC50: ≤ 1000 nM
SMILES: COc1ccc2c(c1)c(CCC(=O)O)cn2S(=O)(=O)c1ccc(-c2ccc(F)c(F)c2)s1 [Compound P-0422, 3-{1-[5-(3,4-Difluoro-phenyl)-thiophene-2-sulfonyl]-5-methoxy-1H-indol-3-yl}-propionic acid]

- EC50: ≤ 1000 nM
SMILES: CCCOc1ccc(-c2ccc(S(=O)(=O)n3cc(CCC(=O)O)c4cc(OC)ccc43)s2)cc1 [Compound P-0035, 3-{5-Methoxy-1-[5-(4-propoxy-phenyl)-thiophene-2-sulfonyl]-1H-indol-3-yl}-propionic acid]

- EC50: ≤ 1000 nM
SMILES: CCOc1ccc(-c2ccc(S(=O)(=O)n3cc(CCC(=O)O)c4cc(OCC)ccc43)s2)cc1 [Compound P-0474, 3-{5-Ethoxy-1-[5-(4-ethoxy-phenyl)-thiophene-2-sulfonyl]-1H-indol-3-yl}-propionic acid]
